In patent publication US6177438A, “Morphinan derivatives and pharmaceutical use thereof” (priority 1993, dated 2001):

Tested on: acetic acid-induced writhing in ddy mice
Assay: animal or person
Assay type: in vivo, 5 week old ddy mice
Settings: Mus musculus, sc
Procedure: 5 week old ddy mice were used in this test. After intraperitoneal administration of 0.1 ml of 0.6% aqueous acetic acid per 10 g of body weight, the number of writhing reactions that occurred in 10 minutes starting 10 minutes after administration was evaluated for the indicator. The test drug was administered subcutaneously into the backs of the animals 15 minutes before administration of acetic acid.

SMILES: CN1CC[C@]23c4c5ccc(O)c4O[C@H]2[C@@H](O)C=C[C@H]3[C@H]1C5 [Morphine, reference compound]
- ED50: 0.55 mg/kg
